Results as given in the supplement of paper PMC4256282, “Profound Activity of the Anti-cancer Drug Bortezomib against Echinococcus multilocularis Metacestodes Identifies the Proteasome as a Novel Drug Target for Cestodes” (PLoS Neglected Tropical Diseases, 2014).
Where a name gives a salt, the structure may show the parent alone. The list shows a part of the results. Single values are uncertain, as repeats are few or missing.

System: Echinococcus multilocularis metacestodes
Test: vesicle damage (PGI release) relative to positive control DB1127 at 20 µM, DMSO subtracted; higher = more parasite damage
Conditions: treatment time 5 days

SMILES	vesicle damage [%]
CNC[C@@H](O)c1ccc(O)c(O)c1 [L-Adrenaline]	0.392
C=C1[C@H](CO)[C@@H](O)C[C@@H]1n1cnc2c(=O)[nH]c(N)nc21 [Entecavir hydrate]	-0.988
Nc1nc2ccc(OC(F)(F)F)cc2s1 [Riluzole]	-1.85
Cc1c(OCC(F)(F)F)ccnc1C[S+]([O-])c1nc2ccccc2[nH]1 (centres undefined) [Lansoprazole]	-1.34
C#C[C@]1(O)CC[C@H]2[C@@H]3CCc4cc(O)ccc4[C@H]3CC[C@@]21C [Ethinyl estradiol]	0.73
CCC(=O)OCC(=O)[C@@]1(OC(=O)CC)[C@@H](C)C[C@H]2[C@@H]3CCC4=CC(=O)C=C[C@]4(C)[C@@]3(F)[C@@H](O)C[C@@]21C [Betamethasone dipropionate]	-0.345
C[C@H]1O[C@H](O[C@H]2[C@H](O)[C@@H](O)[C@@H](O[C@H]3[C@H](O)[C@@H](O)C(O)O[C@@H]3CO)O[C@@H]2CO)[C@H](O)[C@@H](O)[C@@H]1N[C@H]1C=C(CO)[C@@H](O)[C@H](O)[C@H]1O (some centres undefined) [Acarbose]	1.45
CNC(=O)c1ccccc1Sc1ccc2c(/C=C/c3ccccn3)n[nH]c2c1 [Axitinib]	155
C#C[C@]1(O)CC[C@H]2[C@@H]3CCC4=CC(=O)CC[C@@H]4[C@H]3CC[C@@]21CC [Levonorgestrel]	-10.7
Nc1ccc(S(N)(=O)=O)cc1 [Sulfanilamide]	2.93
NC(=O)c1ncn([C@@H]2O[C@H](CO)[C@@H](O)[C@H]2O)c1N [Acadesine]	-14
Nc1nc(=O)c2c([nH]1)NCC(CNc1ccc(C(=O)N[C@@H](CCC(=O)O)C(=O)O)cc1)N2C=O (some centres undefined) [Leucovorin Calcium]	-0.019
COc1ccc(-c2nc3cc(C4=NNC(=O)CC4C)ccc3[nH]2)cc1 (centres undefined) [Pimobendan]	-2.73
CCOc1nc2cccc(C(=O)OC(C)OC(=O)OC3CCCCC3)c2n1Cc1ccc(-c2ccccc2-c2nn[nH]n2)cc1 (centres undefined) [Candesartan cilexetil]	102
Cc1nc(-c2ccc(OCC(C)C)c(C#N)c2)sc1C(=O)O [Febuxostat]	10.1
O=C(c1ccccc1)c1ccc2n1CCC2C(=O)O (centres undefined) [Ketorolac Tromethamine]	-1.05
Nc1nc2[nH]cc(CCc3ccc(C(=O)N[C@@H](CCC(=O)O)C(=O)O)cc3)c2c(=O)[nH]1 [Pemetrexed disodium]	-4.64
CCOC(=O)[C@H](CCc1ccccc1)N[C@@H](C)C(=O)N1[C@H](C(=O)O)C[C@@H]2CCC[C@@H]21 [Ramipril]	-12.2
COC(=O)[C@@H]1CC2=CC(=O)CC[C@]2(C)[C@@]23O[C@@H]2C[C@@]2(C)[C@@H](CC[C@@]24CCC(=O)O4)[C@H]13 [Eplerenone]	-2.31
CN(C/C=C/C#CC(C)(C)C)Cc1cccc2ccccc12 [Terbinafine hydrochloride]	0.946

Some of the entries so far, as a markdown table.

| SMILES | vesicle damage [%] |
| --- | --- |
| CCOc1nc2cccc(C(=O)OC(C)OC(=O)OC3CCCCC3)c2n1Cc1ccc(-c2ccccc2-c2nn[nH]n2)cc1 (centres undefined) [Candesartan cilexetil] | 102 |
| Cc1nc(-c2ccc(OCC(C)C)c(C#N)c2)sc1C(=O)O [Febuxostat] | 10.1 |

Further results:

SMILES	vesicle damage [%]
CC(C)c1nc(CN(C)C(=O)N[C@H](C(=O)N[C@@H](Cc2ccccc2)C[C@H](O)[C@H](Cc2ccccc2)NC(=O)OCc2cncs2)C(C)C)cs1 [Ritonavir]	5.58
Cc1nnc(C(C)C)n1C1C[C@H]2CC[C@@H](C1)N2CC[C@H](NC(=O)C1CCC(F)(F)CC1)c1ccccc1 (stereo in doubt) [Maraviroc]	-8.48
CCCCN1CCCCC1C(=O)Nc1c(C)cccc1C (centres undefined) [Bupivacaine hydrochloride]	5.22
CN(C)[C@@H]1C(O)=C(C(N)=O)C(=O)[C@@]2(O)C(O)=C3C(=O)c4c(O)cccc4[C@@](C)(O)[C@H]3[C@H](O)[C@@H]12 [Oxytetracycline]	-8.74
CC1Cc2ccccc2N1NC(=O)c1ccc(Cl)c(S(N)(=O)=O)c1 (centres undefined) [Indapamide]	-11.6
Cc1cc(NS(=O)(=O)c2ccc(N)cc2)no1 [Sulfamethoxazole]	-12
CCn1cc(C(=O)O)c(=O)c2cc(F)c(N3CCNC(C)C3)c(F)c21 (centres undefined) [Lomefloxacin hydrochloride]	2.35
CCC(=O)NCC[C@@H]1CCc2ccc3c(c21)CCO3 [Ramelteon]	-3.37
CC(C)Cn1cnc2c(N)nc3ccccc3c21 [Imiquimod]	1.82
CCC1=C(C)CN(C(=O)NCCc2ccc(S(=O)(=O)NC(=O)N[C@H]3CC[C@H](C)CC3)cc2)C1=O [Glimepiride]	-1.97
Cc1cn(-c2cc(NC(=O)c3ccc(C)c(Nc4nccc(-c5cccnc5)n4)c3)cc(C(F)(F)F)c2)cn1 [Nilotinib]	0.205
COc1ccc(Cl)cc1C(=O)NCCc1ccc(S(=O)(=O)NC(=O)NC2CCCCC2)cc1 [Glyburide]	-11
COc1ccccc1OCC(O)CN1CCN(CC(=O)Nc2c(C)cccc2C)CC1 (centres undefined) [Ranolazine]	-6.2
CC1(C)O[C@@H]2C[C@H]3[C@@H]4CCC5=CC(=O)C=C[C@]5(C)[C@@]4(F)[C@@H](O)C[C@]3(C)[C@]2(C(=O)CO)O1 [Triamcinolone acetonide]	-2.46
CC(C)OC(=O)C(C)(C)Oc1ccc(C(=O)c2ccc(Cl)cc2)cc1 [Fenofibrate]	-15.1
N[C@@H](Cc1ccc(O)c(O)c1)C(=O)O [levodopa]	-12.2
CC(C(=O)O)c1cccc(Oc2ccccc2)c1 (centres undefined) [Fenoprofen calcium]	4.35
Cc1ccc(Nc2nccc(N(C)c3ccc4c(C)n(C)nc4c3)n2)cc1S(N)(=O)=O [Pazopanib Hydrochloride]	-0.455
CC(=O)OCC(=O)[C@@]1(O)CC[C@H]2[C@@H]3CCC4=CC(=O)CC[C@]4(C)[C@H]3C(=O)C[C@@]21C [Cortisone acetate]	3.49
